# Source: PubChem BioAssay AID540276 (National Center for Advancing Translational Sciences (NCATS), 2011)
# The campaign covered roughly 300,000 compounds. About 5,400 (1.8%) were called active. The shares of active, inactive and inconclusive entries below differ from those in the screen. The call rests on the fitted dose curve; tested in HEK293 cells. Where the call is inconclusive, the potency comes from a doubtful curve fit.
# Assay: qHTS for inhibitors of binding or entry into cells for Marburg Virus
# Settings: Marburg virus pseudotyped entry inhibition, cell reporter; activity change, negative = inhibition: at 37.8 µM (top of the series) unless noted
# On the % scale 0 is the no-effect control and ±100 the full control effect; potency means the concentration at half of the fitted maximal effect.
SMILES,Potency,"activity change, negative = inhibition"
COC(=O)c1ccc(NC(=S)NN2CCCCC2c2cccnc2)cc1 (configuration not stated),"inconclusive: 35.5 µM [inhibitor, single point]",–
Cc1ccc(/C=N/NC(=O)c2cccc(S(=O)(=O)Nc3ccccc3Cl)c2)s1,–,inactive: -25.7%
Cc1cc2cc3c(cc2nc1SCC(=O)OC(C)C)OCCO3,"inconclusive: 29.1 µM [inhibitor, single point]",–
Cc1c(C(=O)N/N=C/C(C)C)[nH]c2c([N+](=O)[O-])cccc12,"inconclusive: 4.47 µM [inhibitor, full curve, poor fit]",–
Cc1cc(Oc2ccc3ccccc3c2)nc(SCC(=O)c2ccccc2)n1,"inconclusive: 12.6 µM [inhibitor, partial curve, poor fit]",–
Cc1nnc(N2CCCCC2)c2ccccc12,–,inactive: -7.3%
Cc1nn(-c2ccccc2)c2nc(N)c(C#N)c(-c3ccc(O)c(O)c3)c12,"inconclusive: 11.2 µM [inhibitor, partial curve, poor fit]",–
Cc1ccccc1-n1c(C)nnc1SCC(=O)NC1CCCc2ccccc21 (configuration not stated),"inconclusive: 3.98 µM [activator, single point]",–
COc1ccc(Cn2nnc3c(=O)[nH]c(C4CCCN(C(=O)c5ccccc5Cl)C4)nc32)cc1OC (configuration not stated),–,inactive: -1.97% [at 46.1 µM]
COc1cccc(-c2nnc(N(C)C(=O)C3CCOC3)s2)c1 (configuration not stated),–,inactive: 7.23%
CCc1cc(C(=O)c2ccc(OC)cc2)c(NC(=O)CN2CCN(C)CC2)s1,active: 3.55 µM,–
Cc1cc(N2CCC(C)CC2)nc(SCC(=O)c2ccccc2)n1,"inconclusive: 22.4 µM [inhibitor, single point]",–
COc1ccc(C(CNC(=O)c2cc(F)c(F)c(F)c2F)N2CCOCC2)cc1 (configuration not stated),–,inactive: 3.72% [at 46.1 µM]
CSCCC1NC(=O)N(CC(=O)N2N=C(c3ccc(Cl)cc3)CC2c2ccco2)C1=O (configuration not stated),"inconclusive: 11.2 µM [inhibitor, partial curve, poor fit]",–
CCN(CC)CCOC(=O)c1ccc(NC(=O)c2nn(-c3ccc(C)cc3)c(=O)c3c2c2ccccc2n3C)cc1,"inconclusive: 8.91 µM [activator, partial curve]",–
O=C(NCC1(c2ccccc2)CCCC1)C1(c2ccccc2)CCCC1,"inconclusive: 15.8 µM [inhibitor, partial curve, poor fit]",–
Cc1ccnc(NC(=O)c2cccc(S(=O)(=O)NCc3ccccc3)c2)c1,–,inactive: 21.9%
CCCCC(=O)Nc1cccc(-c2csc(-c3ccccc3)n2)c1,"inconclusive: 35.5 µM [inhibitor, partial curve, poor fit]",–
COCCN(CCOC)c1ncnc2c1cnn2-c1ccccc1,–,inactive: -0.237%
COc1ccc(C)cc1S(=O)(=O)N1c2ccc(C)cc2C2CN(C)CCC21 (configuration not stated),"inconclusive: 17.8 µM [inhibitor, single point]",–
CCc1cccc(CC)c1-n1c(SCC(=O)N2CCc3ccccc32)nc(O)cc1=O,"inconclusive: 10 µM [inhibitor, partial curve, poor fit]",–

SMILES,Potency,"activity change, negative = inhibition"
CC(=O)Nc1ccc(S(=O)(=O)NCC2CCC(C(=O)NC(C)c3ccccc3)CC2)cc1 (configuration not stated),–,inactive: 3.35% [at 46.1 µM]
CCOC(=O)CC1COCCN1Cc1cn[nH]c1-c1ccc2c(c1)OCO2 (configuration not stated),–,inactive: 2.8% [at 46.1 µM]
C=C(C)CCC1(C)NC(=O)N(c2ccccc2)N1 (configuration not stated),"inconclusive: 6.31 µM [inhibitor, partial curve, poor fit]",–
Cc1cc(C)cc(-n2c(SC(C)C(=O)NCc3ccc4c(c3)OCO4)nc3ccccc3c2=O)c1 (configuration not stated),"inconclusive: 0.112 µM [activator, full curve, poor fit]",–
O=C(NCCCN1CCN(c2ccc(F)cc2)CC1)c1cc2c(s1)-c1ccccc1OC2,"inconclusive: 7.08 µM [inhibitor, partial curve]",–
O=C(N/C(=C/c1ccc(Br)cc1)C(=O)N1CCOCC1)c1cccs1,–,inactive: -0.488% [at 46.1 µM]
CC(=O)CCc1ccc(OCC(=O)Nc2cccc(S(=O)(=O)N(C)c3ccccc3)c2)cc1,–,inactive: -6.9%
CCCCN1C[C@H](COC(=O)CCC)Oc2cccc(F)c2S1(=O)=O,"inconclusive: 0.887 µM [inhibitor, full curve, poor fit]",–
COc1cccc(C(=O)N/N=c2/oc3ccccc3cc2C(N)=O)c1,"inconclusive: 6.31 µM [inhibitor, partial curve, poor fit]",–
O=C(NCCC1=CCCCC1)c1ccc2c(c1)N(Cc1ccccc1)C(=O)c1ccccc1S2(=O)=O,"inconclusive: 11.2 µM [inhibitor, partial curve]",–
COc1ccc(CCn2c(C)cc(C(=O)CSc3nnnn3-c3ccccc3)c2C)cc1,"inconclusive: 11.6 µM [inhibitor, partial curve]",–
CN(Cc1nc2ccccc2n1C)c1ccccc1,"inconclusive: 35.5 µM [inhibitor, single point]",–
CC(=O)Nc1ccc(S(=O)(=O)N2CCN(CCCOc3cc(C)ccc3C)CC2)cc1,"inconclusive: 29.1 µM [inhibitor, single point]",–
O=C(Cn1cnc2c(cnn2-c2ccccc2)c1=O)N1CCCc2ccccc21,active: 7.3 µM,–
CCOC(=O)CN1CC23C=CC(O2)C(C(=O)Nc2ccc4c(c2)OCO4)C3C1=O (configuration not stated),"inconclusive: 6.51 µM [inhibitor, single point]",–
Cc1onc(-c2ccccc2Cl)c1C(=O)N1CCCc2ccccc21,"inconclusive: 20.6 µM [inhibitor, partial curve, poor fit]",–
CCc1nc(SCC(=O)NCCc2ccccc2)c2oc3ccccc3c2n1,"inconclusive: 8.2 µM [inhibitor, partial curve, poor fit]",–
O=C(Cc1ccc(Br)cc1)N1CCN(C(=O)c2ccco2)CC1,"inconclusive: 35.5 µM [activator, single point]",–
CCOc1ccc2cc(S(=O)(=O)N3CCCCC3)ccc2c1,"inconclusive: 0.562 µM [inhibitor, full curve, poor fit]",–
Cc1nn2c(N3CCN(CCO)CC3)c3c(nc2c1-c1ccccc1)CCCC3,"inconclusive: 22.4 µM [inhibitor, single point]",–
CCN1C(=O)CC(C(=O)Nc2ccc(OC)cc2)SC1=Nc1ccc(C)c(C)c1 (configuration not stated),"inconclusive: 35.5 µM [activator, single point]",–

# Reformatted: 2 of the compounds above
SMILES | Potency | activity change, negative = inhibition
CCCCN1C[C@H](COC(=O)CCC)Oc2cccc(F)c2S1(=O)=O | inconclusive: 0.887 µM [inhibitor, full curve, poor fit] | –
CCN1C(=O)CC(C(=O)Nc2ccc(OC)cc2)SC1=Nc1ccc(C)c(C)c1 (configuration not stated) | inconclusive: 35.5 µM [activator, single point] | –
